From article PMC5017145
Results are given in words; binding and its absence hold for the method and conditions named. In cells and extracts the contact can be indirect. Some results given as binding are weak or reduced against the parent protein; the word gives no strength.

Protein sequences, listed by entry. Tags and fused reporters are not part of them.
UniProt P62820: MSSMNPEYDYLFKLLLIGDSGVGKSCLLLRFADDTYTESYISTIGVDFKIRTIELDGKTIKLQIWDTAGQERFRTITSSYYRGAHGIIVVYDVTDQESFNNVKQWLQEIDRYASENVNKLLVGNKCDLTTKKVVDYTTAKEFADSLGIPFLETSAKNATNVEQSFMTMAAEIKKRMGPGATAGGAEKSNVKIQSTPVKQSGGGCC
UniProt P61019: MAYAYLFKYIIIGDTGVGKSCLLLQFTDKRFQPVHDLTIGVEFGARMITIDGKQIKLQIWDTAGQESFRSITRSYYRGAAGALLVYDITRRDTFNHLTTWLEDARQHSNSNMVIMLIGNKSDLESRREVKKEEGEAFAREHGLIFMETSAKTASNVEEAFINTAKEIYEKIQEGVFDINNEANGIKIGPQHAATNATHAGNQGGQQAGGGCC
UniProt P30153: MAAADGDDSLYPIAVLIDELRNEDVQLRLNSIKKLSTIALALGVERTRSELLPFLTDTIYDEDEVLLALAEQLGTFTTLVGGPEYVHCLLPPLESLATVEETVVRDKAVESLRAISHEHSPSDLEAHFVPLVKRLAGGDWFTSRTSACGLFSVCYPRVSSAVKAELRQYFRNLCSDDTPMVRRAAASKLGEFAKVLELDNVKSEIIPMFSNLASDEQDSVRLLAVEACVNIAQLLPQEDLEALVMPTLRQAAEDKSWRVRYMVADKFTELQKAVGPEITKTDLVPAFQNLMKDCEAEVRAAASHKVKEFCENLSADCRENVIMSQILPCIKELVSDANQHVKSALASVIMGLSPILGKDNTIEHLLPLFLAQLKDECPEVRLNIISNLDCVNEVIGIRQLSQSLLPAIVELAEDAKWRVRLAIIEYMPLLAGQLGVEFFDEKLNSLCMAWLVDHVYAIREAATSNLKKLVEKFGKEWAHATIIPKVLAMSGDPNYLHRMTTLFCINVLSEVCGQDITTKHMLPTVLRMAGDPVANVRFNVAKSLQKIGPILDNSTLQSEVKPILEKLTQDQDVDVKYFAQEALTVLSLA

Columns and labels:
GST-RAB1A = GST-RAB1A (UniProt P62820); experiment: pull-down; beads with about 5 μg GST-Rab pre-loaded with 0.5 mM GTPγS or 1 mM GDP, 1 h at 4 °C with lysate of HeLa over-expressing PPP2R1A; 50 mM HEPES-KOH pH 7.2, 150 mM NaCl, 1 mM MgCl2, 1% Triton-X-100; anti-Flag blot; only the target purified
GST-RAB2A = GST-RAB2A (UniProt P61019); experiment: as above

- binding (GST-RAB1A): binds
- binding (GST-RAB2A): binds
Substance: PPP2R1A-Flag, wild type (from UniProt P30153 1-589)
